{"source": "PubChem BioAssay AID686943 | Drosophila RNAi Screening Center | 2013", "test": "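Fly genes whose loss alters ERK activation after insulin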 (primary screen)", "cells": "Drosophila S2R+ haemocyte-like cells expressing YFP-tagged ERK (Rolled)", "reagent": "long dsRNA against Drosophila genes", "treatment": "insulin stimulation versus unstimulated cells; dose and duration not given", "measured": "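Antibody staining for doubly phosphorylated ERK divided by ERK-YFP signal, as plate z-scores, in insulin-treated and untreated cells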", "reading the numbers": "replicate 1, z-score of dpERK with insulin and replicate 2, z-score of dpERK with insulin: higher = more active ERK per ERK-YFP after insulin", "note": "In all, the deposit lists about 23,000 reagents; below is a random part of those that have a named target and a result. 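Extra replicates exist only for a retested subset of genes; insulin dose and duration not given; both raised and lowered dpERK matter.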 Reagents against one gene are numbered here. A plus sign joins genes that one reagent is predicted to hit. Not all columns of the deposit are shown. Not given: the amount of reagent, the time to read-out."}
The first 3 records as a preview:
{"target gene":"CG13068","reagent no.":1,"replicate 1, z-score of dpERK with insulin":0.75,"replicate 2, z-score of dpERK with insulin":0.78}
{"target gene":"Ugt49B1","reagent no.":1,"replicate 1, z-score of dpERK with insulin":-0.15,"replicate 2, z-score of dpERK with insulin":-0.29}
{"target gene":"Sptr","reagent no.":1,"replicate 1, z-score of dpERK with insulin":-0.46,"replicate 2, z-score of dpERK with insulin":0.03}

The listing, from the first entry:
{"target gene":"CG13068","reagent no.":1,"replicate 1, z-score of dpERK with insulin":0.75,"replicate 2, z-score of dpERK with insulin":0.78}
{"target gene":"Ugt49B1","reagent no.":1,"replicate 1, z-score of dpERK with insulin":-0.15,"replicate 2, z-score of dpERK with insulin":-0.29}
{"target gene":"Sptr","reagent no.":1,"replicate 1, z-score of dpERK with insulin":-0.46,"replicate 2, z-score of dpERK with insulin":0.03}
{"target gene":"ctrip","reagent no.":1,"replicate 1, z-score of dpERK with insulin":0.81,"replicate 2, z-score of dpERK with insulin":-2.66}
{"target gene":"ctrip","reagent no.":2,"replicate 1, z-score of dpERK with insulin":-0.94,"replicate 2, z-score of dpERK with insulin":-0.27}
{"target gene":"ctrip","reagent no.":3,"replicate 1, z-score of dpERK with insulin":-1.42,"replicate 2, z-score of dpERK with insulin":-1.73}
{"target gene":"nrv3","reagent no.":1,"replicate 1, z-score of dpERK with insulin":0.17,"replicate 2, z-score of dpERK with insulin":0.03}
{"target gene":"Gr68a","reagent no.":1,"replicate 1, z-score of dpERK with insulin":0.99,"replicate 2, z-score of dpERK with insulin":0.06}
{"target gene":"CG17048","reagent no.":1,"replicate 1, z-score of dpERK with insulin":0.34,"replicate 2, z-score of dpERK with insulin":0.17}
{"target gene":"GstZ2","reagent no.":1,"replicate 1, z-score of dpERK with insulin":0.33,"replicate 2, z-score of dpERK with insulin":0.44}
{"target gene":"Oatp33Eb","reagent no.":1,"replicate 1, z-score of dpERK with insulin":-0.05,"replicate 2, z-score of dpERK with insulin":0.63}
{"target gene":"CG6005","reagent no.":1,"replicate 1, z-score of dpERK with insulin":0.13,"replicate 2, z-score of dpERK with insulin":-0.29}
{"target gene":"CG4678","reagent no.":1,"replicate 1, z-score of dpERK with insulin":0.59,"replicate 2, z-score of dpERK with insulin":-0.38}
{"target gene":"CG4678","reagent no.":2,"replicate 1, z-score of dpERK with insulin":0.18,"replicate 2, z-score of dpERK with insulin":0.32}
{"target gene":"Gr22f","reagent no.":1,"replicate 1, z-score of dpERK with insulin":0.05,"replicate 2, z-score of dpERK with insulin":0.43}
{"target gene":"Odc2","reagent no.":1,"replicate 1, z-score of dpERK with insulin":0.21,"replicate 2, z-score of dpERK with insulin":0.7}
{"target gene":"CR10991","reagent no.":1,"replicate 1, z-score of dpERK with insulin":-0.44,"replicate 2, z-score of dpERK with insulin":0.19}
{"target gene":"mbo","reagent no.":1,"replicate 1, z-score of dpERK with insulin":0.45,"replicate 2, z-score of dpERK with insulin":2.54}
{"target gene":"CG6144","reagent no.":1,"replicate 1, z-score of dpERK with insulin":0.24,"replicate 2, z-score of dpERK with insulin":0.55}
{"target gene":"CG15861","reagent no.":1,"replicate 1, z-score of dpERK with insulin":0,"replicate 2, z-score of dpERK with insulin":0.54}
{"target gene":"CG10996","reagent no.":1,"replicate 1, z-score of dpERK with insulin":0.46,"replicate 2, z-score of dpERK with insulin":0.36}
{"target gene":"Ilp4","reagent no.":1,"replicate 1, z-score of dpERK with insulin":0.74,"replicate 2, z-score of dpERK with insulin":1.62}
{"target gene":"Obp56e","reagent no.":1,"replicate 1, z-score of dpERK with insulin":0.23,"replicate 2, z-score of dpERK with insulin":0.02}
{"target gene":"CG2218","reagent no.":1,"replicate 1, z-score of dpERK with insulin":0.91,"replicate 2, z-score of dpERK with insulin":-0.42}
{"target gene":"Gr66a","reagent no.":1,"replicate 1, z-score of dpERK with insulin":0.16,"replicate 2, z-score of dpERK with insulin":-0.34}
{"target gene":"CG44000 + CG33995 + CG44001","reagent no.":1,"replicate 1, z-score of dpERK with insulin":0.95,"replicate 2, z-score of dpERK with insulin":0.07}
{"target gene":"CG44000 + CG33995 + CG44001","reagent no.":2,"replicate 1, z-score of dpERK with insulin":-0.37,"replicate 2, z-score of dpERK with insulin":0.34}
{"target gene":"GAA1","reagent no.":1,"replicate 1, z-score of dpERK with insulin":0.76,"replicate 2, z-score of dpERK with insulin":0.53}
{"target gene":"CG30273","reagent no.":1,"replicate 1, z-score of dpERK with insulin":1.94,"replicate 2, z-score of dpERK with insulin":1.75}
{"target gene":"RpL13A","reagent no.":1,"replicate 1, z-score of dpERK with insulin":-3.36,"replicate 2, z-score of dpERK with insulin":2.33}
{"target gene":"CG32452","reagent no.":1,"replicate 1, z-score of dpERK with insulin":0.83,"replicate 2, z-score of dpERK with insulin":0.82}
{"target gene":"CG32452","reagent no.":2,"replicate 1, z-score of dpERK with insulin":0.64,"replicate 2, z-score of dpERK with insulin":0.27}
